In article PMC5696377:
No constants are given. Whether binding was seen depends on the method and setting. Binding can be weak; no strength is given.

What was measured:
[1] = target: T1, IKKα (human (endogenous in MDA-MB-231, BT549)) (UniProt O15111); test: SEC; total protein extracts of MDA-MB-231 (control and shMORG1) on Superose 6 10/300 GL, 25 mM Tris-HCl pH 8.0, 1 mM MgCl2, 10% glycerol; fractions analysed by Western blot
T1 sequence: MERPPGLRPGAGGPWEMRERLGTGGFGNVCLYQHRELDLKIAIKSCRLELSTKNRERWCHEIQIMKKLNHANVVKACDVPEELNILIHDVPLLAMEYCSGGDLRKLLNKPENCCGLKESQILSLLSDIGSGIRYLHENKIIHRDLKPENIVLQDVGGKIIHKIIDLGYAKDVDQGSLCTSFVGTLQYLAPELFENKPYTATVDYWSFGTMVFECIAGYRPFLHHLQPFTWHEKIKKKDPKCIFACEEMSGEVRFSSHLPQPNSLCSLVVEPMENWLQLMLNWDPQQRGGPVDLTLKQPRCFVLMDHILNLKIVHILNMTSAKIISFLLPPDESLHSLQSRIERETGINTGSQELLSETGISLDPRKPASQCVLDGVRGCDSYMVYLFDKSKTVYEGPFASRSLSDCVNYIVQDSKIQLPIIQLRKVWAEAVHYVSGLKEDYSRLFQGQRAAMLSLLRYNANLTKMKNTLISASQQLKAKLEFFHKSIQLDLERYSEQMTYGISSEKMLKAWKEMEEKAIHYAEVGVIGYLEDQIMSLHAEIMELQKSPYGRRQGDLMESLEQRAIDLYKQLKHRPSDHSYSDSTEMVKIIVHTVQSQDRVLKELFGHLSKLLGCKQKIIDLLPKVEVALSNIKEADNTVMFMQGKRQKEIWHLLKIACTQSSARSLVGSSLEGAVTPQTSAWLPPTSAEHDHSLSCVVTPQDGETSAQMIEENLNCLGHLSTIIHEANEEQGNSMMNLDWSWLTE

[2] = target: T2, IKKβ (human (endogenous in MDA-MB-231, BT549)) (UniProt O14920); test: as above
T2 sequence: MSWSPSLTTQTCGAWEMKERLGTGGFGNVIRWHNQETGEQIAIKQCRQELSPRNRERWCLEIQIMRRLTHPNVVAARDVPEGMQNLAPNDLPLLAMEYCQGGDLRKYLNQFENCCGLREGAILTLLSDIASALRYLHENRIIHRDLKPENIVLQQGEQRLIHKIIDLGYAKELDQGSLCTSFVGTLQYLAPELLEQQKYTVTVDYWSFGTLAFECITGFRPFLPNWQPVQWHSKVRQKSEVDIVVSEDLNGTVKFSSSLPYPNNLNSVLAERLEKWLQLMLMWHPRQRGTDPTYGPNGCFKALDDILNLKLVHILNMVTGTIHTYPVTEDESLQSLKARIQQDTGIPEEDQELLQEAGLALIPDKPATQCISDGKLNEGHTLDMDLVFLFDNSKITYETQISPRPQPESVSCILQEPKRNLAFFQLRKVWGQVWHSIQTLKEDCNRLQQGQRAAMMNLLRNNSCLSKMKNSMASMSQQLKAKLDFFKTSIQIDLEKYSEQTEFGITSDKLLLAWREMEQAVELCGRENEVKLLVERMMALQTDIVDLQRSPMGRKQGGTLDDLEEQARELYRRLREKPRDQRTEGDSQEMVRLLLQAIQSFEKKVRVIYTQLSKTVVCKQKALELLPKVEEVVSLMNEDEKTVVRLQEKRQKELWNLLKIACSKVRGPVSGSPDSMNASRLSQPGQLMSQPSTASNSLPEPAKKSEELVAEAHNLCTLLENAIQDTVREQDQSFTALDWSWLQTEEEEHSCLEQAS

binding [1]: binds
binding [2]: binds
Substance: Hsp90 (human (endogenous in MDA-MB-231))
